Source: PubChem BioAssay AID1159598 (NIAID, 2016)

Assay: 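Canonical TLR pathway genes needed for TNF promoter response to flagellin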
Cell system: human THP-1 B5 reporter cells made macrophage-like with PMA
Reagents: single siRNA against human genes
Duration: reporter read 48 to 72 hours after siRNA transfection
Conditions: flagellin stimulation for 4 hours, dose not given
Detection: 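TNF promoter firefly luciferase over renilla after 4 h flagellin, plate median/MAD scaled, robust z versus negative controls, mean of replicates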
Direction: TNF reporter z-score: higher = stronger TNF promoter activity than controls
Call rule: 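a row is called active when its replicate-mean z lies at or beyond 1.5 in either direction, so raised and lowered signal both count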
Meaning of the calls: active = reporter shifted beyond 1.5 z, up or down; inactive = reporter within 1.5 z of controls
Here is a random part of 756 reagents. Of all reagents, 142 (19%) were called active. 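Active includes both higher and lower reporter signal; each gene has six separate siRNAs, and no gene-level summary is deposited.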 Entries without a mark were called inactive. Reagents against one gene are numbered here. No sequences are given here. Not given: the amount of reagent.

Target gene,siRNA no.,TNF reporter z-score
PIK3R5 (phosphoinositide-3-kinase regulatory subunit 5),1,-1.21
PIK3R5 (phosphoinositide-3-kinase regulatory subunit 5),2,-1.41
PIK3R5 (phosphoinositide-3-kinase regulatory subunit 5),3,-0.0766
PIK3R5 (phosphoinositide-3-kinase regulatory subunit 5),4,0.183
PIK3R5 (phosphoinositide-3-kinase regulatory subunit 5),5,-0.685
PIK3R5 (phosphoinositide-3-kinase regulatory subunit 5),6,-2.64 (active)
TLR8 (toll like receptor 8),1,-0.412
TLR8 (toll like receptor 8),2,0.547
TLR8 (toll like receptor 8),3,-0.838
TLR8 (toll like receptor 8),4,-1.39
TLR8 (toll like receptor 8),5,0.236
TLR8 (toll like receptor 8),6,-0.235
CYLD (CYLD lysine 63 deubiquitinase),1,-1.22
CYLD (CYLD lysine 63 deubiquitinase),2,-0.613
CYLD (CYLD lysine 63 deubiquitinase),3,-1.17
CYLD (CYLD lysine 63 deubiquitinase),4,-0.418
CYLD (CYLD lysine 63 deubiquitinase),5,-0.972
CYLD (CYLD lysine 63 deubiquitinase),6,-1.31
IL33R (interleukin 33 receptor),1,-0.704
IL33R (interleukin 33 receptor),2,-0.38
IL33R (interleukin 33 receptor),3,-0.239
IL33R (interleukin 33 receptor),4,1.05
IL33R (interleukin 33 receptor),5,-1.19
IL33R (interleukin 33 receptor),6,-0.842
IRF3 (interferon regulatory factor 3),1,0.618
IRF3 (interferon regulatory factor 3),2,-0.402
IRF3 (interferon regulatory factor 3),3,-1.83 (active)
IRF3 (interferon regulatory factor 3),4,-0.404
IRF3 (interferon regulatory factor 3),5,-0.669
IRF3 (interferon regulatory factor 3),6,-1.01
MAPK9 (mitogen-activated protein kinase 9),1,-0.195
MAPK9 (mitogen-activated protein kinase 9),2,-1.21
MAPK9 (mitogen-activated protein kinase 9),3,-0.259
MAPK9 (mitogen-activated protein kinase 9),4,1.15
MAPK9 (mitogen-activated protein kinase 9),5,-0.165
MAPK9 (mitogen-activated protein kinase 9),6,0.0511
MYD88 (MYD88 innate immune signal transduction adaptor),1,-6.29 (active)
MYD88 (MYD88 innate immune signal transduction adaptor),2,-3.29 (active)
MYD88 (MYD88 innate immune signal transduction adaptor),3,-7.02 (active)
MYD88 (MYD88 innate immune signal transduction adaptor),4,-3.84 (active)
MYD88 (MYD88 innate immune signal transduction adaptor),5,0.374
MYD88 (MYD88 innate immune signal transduction adaptor),6,-1.02
PTK2B (protein tyrosine kinase 2 beta),1,-0.861
PTK2B (protein tyrosine kinase 2 beta),2,-1.92 (active)
PTK2B (protein tyrosine kinase 2 beta),3,-0.837
PTK2B (protein tyrosine kinase 2 beta),4,-1.57 (active)
PTK2B (protein tyrosine kinase 2 beta),5,-0.82
PTK2B (protein tyrosine kinase 2 beta),6,-0.926
IRAK4 (interleukin 1 receptor associated kinase 4),1,-0.773
IRAK4 (interleukin 1 receptor associated kinase 4),2,0.405
IRAK4 (interleukin 1 receptor associated kinase 4),3,-0.698
IRAK4 (interleukin 1 receptor associated kinase 4),4,-0.977
IRAK4 (interleukin 1 receptor associated kinase 4),5,-0.226
IRAK4 (interleukin 1 receptor associated kinase 4),6,-0.124
TICAM2 (TIR domain containing adaptor molecule 2),1,-0.202
TICAM2 (TIR domain containing adaptor molecule 2),2,0.415
TICAM2 (TIR domain containing adaptor molecule 2),3,-0.435
TICAM2 (TIR domain containing adaptor molecule 2),4,0.545
TICAM2 (TIR domain containing adaptor molecule 2),5,-1.17
TICAM2 (TIR domain containing adaptor molecule 2),6,-1.05
IRF7 (interferon regulatory factor 7),1,-1.08
IRF7 (interferon regulatory factor 7),2,-0.535
IRF7 (interferon regulatory factor 7),3,-0.691
IRF7 (interferon regulatory factor 7),4,-0.105
IRF7 (interferon regulatory factor 7),5,-1.77 (active)
IRF7 (interferon regulatory factor 7),6,-1.59 (active)
CHUK,1,-0.231
CHUK,2,-1.25
CHUK,3,-1.13
CHUK,4,-0.436
CHUK,5,-1.06
CHUK,6,0.118

A stretch from the list above:
Target gene,siRNA no.,TNF reporter z-score
PTK2B (protein tyrosine kinase 2 beta),1,-0.861
PTK2B (protein tyrosine kinase 2 beta),2,-1.92 (active)
PTK2B (protein tyrosine kinase 2 beta),3,-0.837
PTK2B (protein tyrosine kinase 2 beta),4,-1.57 (active)
PTK2B (protein tyrosine kinase 2 beta),5,-0.82
PTK2B (protein tyrosine kinase 2 beta),6,-0.926
IRAK4 (interleukin 1 receptor associated kinase 4),1,-0.773
IRAK4 (interleukin 1 receptor associated kinase 4),2,0.405
IRAK4 (interleukin 1 receptor associated kinase 4),3,-0.698

Next results:
Target gene,siRNA no.,TNF reporter z-score
ITGAX (integrin subunit alpha X),1,-0.626
ITGAX (integrin subunit alpha X),2,-0.753
ITGAX (integrin subunit alpha X),3,0.247
ITGAX (integrin subunit alpha X),4,-1.59 (active)
ITGAX (integrin subunit alpha X),5,-0.308
ITGAX (integrin subunit alpha X),6,-0.559
TLR3 (toll like receptor 3),1,0.439
TLR3 (toll like receptor 3),2,-0.746
TLR3 (toll like receptor 3),3,-0.438
TLR3 (toll like receptor 3),4,-0.327
TLR3 (toll like receptor 3),5,-0.357
TLR3 (toll like receptor 3),6,-1.26
AKT1 (AKT serine/threonine kinase 1),1,0.278
AKT1 (AKT serine/threonine kinase 1),2,0.742
AKT1 (AKT serine/threonine kinase 1),3,-2.2 (active)
AKT1 (AKT serine/threonine kinase 1),4,-0.015
AKT1 (AKT serine/threonine kinase 1),5,0.189
AKT1 (AKT serine/threonine kinase 1),6,-0.706
EGR2 (early growth response 2),1,-0.693
EGR2 (early growth response 2),2,-0.913
EGR2 (early growth response 2),3,-0.294
EGR2 (early growth response 2),4,0.00173
EGR2 (early growth response 2),5,-0.789
EGR2 (early growth response 2),6,-1.33
MAP3K1 (mitogen-activated protein kinase kinase kinase 1),1,-0.621
MAP3K1 (mitogen-activated protein kinase kinase kinase 1),2,-1.63 (active)
MAP3K1 (mitogen-activated protein kinase kinase kinase 1),3,-0.505
MAP3K1 (mitogen-activated protein kinase kinase kinase 1),4,-2.35 (active)
MAP3K1 (mitogen-activated protein kinase kinase kinase 1),5,-0.885
MAP3K1 (mitogen-activated protein kinase kinase kinase 1),6,-0.752
TLR5 (toll like receptor 5),1,-5.33 (active)
TLR5 (toll like receptor 5),2,-2.16 (active)
TLR5 (toll like receptor 5),3,-3.69 (active)
TLR5 (toll like receptor 5),4,-3.63 (active)
TLR5 (toll like receptor 5),5,-2.28 (active)
TLR5 (toll like receptor 5),6,-4.28 (active)
MAPK3 (mitogen-activated protein kinase 3),1,-1
MAPK3 (mitogen-activated protein kinase 3),2,-0.524
MAPK3 (mitogen-activated protein kinase 3),3,-1.94 (active)
MAPK3 (mitogen-activated protein kinase 3),4,-0.0576
MAPK3 (mitogen-activated protein kinase 3),5,-0.412
MAPK3 (mitogen-activated protein kinase 3),6,-2.02 (active)
